Laboratory results published in US20260055206A1 (GENSUN BIOPHARMA, published 2026).
These are yes or no findings as the source states them, for the method shown. Some results given as binding are weak or reduced against the parent protein; the word gives no strength.

Protein sequences, listed by entry. Tags and fused reporters are not part of them. Residues count along the entry.
UniProt Q9NYJ7, residues 27-618: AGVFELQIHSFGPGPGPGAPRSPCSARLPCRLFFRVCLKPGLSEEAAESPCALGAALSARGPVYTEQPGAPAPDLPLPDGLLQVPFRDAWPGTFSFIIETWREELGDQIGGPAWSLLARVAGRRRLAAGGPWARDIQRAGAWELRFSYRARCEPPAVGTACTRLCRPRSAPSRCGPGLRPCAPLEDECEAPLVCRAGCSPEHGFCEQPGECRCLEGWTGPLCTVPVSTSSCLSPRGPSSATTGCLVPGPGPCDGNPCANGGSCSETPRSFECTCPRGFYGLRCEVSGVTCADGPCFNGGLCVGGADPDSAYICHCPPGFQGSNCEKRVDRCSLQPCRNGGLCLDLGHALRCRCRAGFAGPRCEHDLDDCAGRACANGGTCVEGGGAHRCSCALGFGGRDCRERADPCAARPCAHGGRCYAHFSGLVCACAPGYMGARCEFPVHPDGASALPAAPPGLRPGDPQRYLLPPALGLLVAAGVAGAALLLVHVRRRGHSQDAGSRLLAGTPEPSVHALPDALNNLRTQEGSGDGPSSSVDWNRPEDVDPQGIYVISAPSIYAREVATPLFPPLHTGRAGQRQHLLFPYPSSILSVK

Molecular target: human DLL3 (over-expressed on CHO-K1 cells) (human) (UniProt Q9NYJ7)
Test: flow cytometry (iQue) on CHO-K1 cells over-expressing human DLL3, PE anti-human IgG Fc secondary

- binding: binds
B1: DLL3.2 (humanized anti-DLL3 antibody) (antibody, V domains shown)
VH: QVQLVQSGAEVKKPGASVKVSCKATDYIFSNYYIEWVRQAPGQGLEWMGEILPGTGNTVYNEKFKDRVTMTVDTSTSTVYMELSSLRSEDTAVYYCARWGDYALFANWGQGTLVTVSS
VL: DIQMTQSPSTLSASVGDRVTITCKASQNVGTNVAWYQQKPGKAPKALIYSASYRYSGVPSRFSGSGSGTEFTLTISSLQPDDFATYYCQQYNSYPFTFGQGTKLEIK
